# From patent US20220041718A1 (AUTOLUS, published 2022)
# By UniProt entry, the sequences of proteins in these tests, tags left out. Residues count along the entry.
# UniProt P01850, residues 1-129: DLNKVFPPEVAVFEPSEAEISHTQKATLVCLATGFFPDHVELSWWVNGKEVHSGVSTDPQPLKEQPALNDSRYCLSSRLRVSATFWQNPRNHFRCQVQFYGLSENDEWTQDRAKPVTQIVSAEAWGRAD
# No constants are given. Whether binding was seen depends on the method and setting. Some entries that bind do so weakly or less than the wild type. For part of these data: Where a sequence is shown, tags or fusion partners need not be part of it.
# Columns and labels:
# [1] = molecular target: T1, Recombinant purified TRBC1 (human, UniProt P01850 1-129, limits assumed); test: SPR (Biacore T200), biotinylated TRBC1 captured on a CAP chip, scFv-Fc injected [cont.) B]
# T1 construct: Construct not described (may be a soluble TCR carrying TRBC1); also called TCR beta constant region 1; soluble recombinant biotinylated TRBC1
# [2] = molecular target: Recombinant purified TRBC2 (human); test: SPR (Biacore T200), biotinylated TRBC2 captured on a CAP chip, scFv-Fc injected; concentration not printed on the sheet [cont.) B]
# [3] = molecular target: Recombinant purified TRBC2 (human); test: SPR (Example 6)
# [4] = molecular target: Recombinant purified TRBC2 (human); test: SPR
# [5] = molecular target: Recombinant purified TRBC2 (human); test: SPR (Biacore T200), biotinylated TRBC2 captured on a CAP chip, scFv-COMP injected; concentration not printed on the sheet [cont.) C]
# [6] = molecular target: Recombinant purified TRBC2 (human); test: SPR (Biacore T200), captured anti-TRBC2 binder, recombinant TRBC2 as analyte; concentration not printed on the sheet
# [7] = molecular target: T1, Recombinant purified TRBC1; test: SPR (Biacore T200), captured anti-TRBC2 binder, recombinant TRBC1 as analyte
Binder,binding [4],other results
"anti-TRBC2 scFv-Fc (T28K, Y32F, A100N, Y102L, N103M in VH; N35R in VL of hJovi-1) (Fc fusion, Multivalent format) QVQLVQSGAEVKKPGASVKVSCKASGYKFTGFVMHWVRQAPGQGLEWMGFINPYNDDIQSNERFRGRVTMTRDTSISTAYMELSRLRSDDTAVYYCARGNGLMFDGAYRFFDFWGQGTMVTVSSGGGGSGGGGSGGGGSDIVMTQSPLSLPVTPGEPASISCRSSQRLVHSNGRTYLHWYLQKPGQSPRLLIYRVSNRFPGVPDRFSGSGSGTDFTLKISRVEAEDVGVYYCSQSTHVPYTFGQGTKLEIKRSDPRGPTIKPCPPCKCPAPNLLGGPSVFIFPPKIKDVLMISLSPIVTCVVVDVSEDDPDVQISWFVNNVEVHTAQTQTHREDYNSTLRVVSALPIQHQDWMSGKEFKCKVNNKDLPAPIERTISKPKGSVRAPQVYVLPPPEEEMTKKQVTLTCMVTDFMPEDIYVEWTNNGKTELNYKNTEPVLDSDGSYFMYSKLRVEKKNWVERNSYSCSVVHEGLHNHHTTKSFSRTPGK",binds,binding [1]: no binding (tested: concentration not printed on the sheet); binding [2]: binds; binding [3]: binds
"hJovi-1 variant IgG, VH T28K, Y32F, R98K, A100N; VL unmutated (antibody, V domains shown, IgG format) VH: QVQLVQSGAEVKKPGASVKVSCKASGYKFTGFVMHWVRQAPGQGLEWMGFINPYNDDIQSNERFRGRVTMTRDTSISTAYMELSRLRSDDTAVYYCAKGNGYNFDGAYRFFDFWGQGTMVTVSS VL: DIVMTQSPLSLPVTPGEPASISCRSSQRLVHSNGNTYLHWYLQKPGQSPRLLIYRVSNRFPGVPDRFSGSGSGTDFTLKISRVEAEDVGVYYCSQSTHVPYTFGQGTKLEIK",binds,
"hJovi-1 variant IgG, VH V2R, T28K, Y32F, A100N; VL unmutated (antibody, V domains shown, IgG format) VH: QRQLVQSGAEVKKPGASVKVSCKASGYKFTGFVMHWVRQAPGQGLEWMGFINPYNDDIQSNERFRGRVTMTRDTSISTAYMELSRLRSDDTAVYYCARGNGYNFDGAYRFFDFWGQGTMVTVSS VL: DIVMTQSPLSLPVTPGEPASISCRSSQRLVHSNGNTYLHWYLQKPGQSPRLLIYRVSNRFPGVPDRFSGSGSGTDFTLKISRVEAEDVGVYYCSQSTHVPYTFGQGTKLEIK",binds,
"hJovi-1 variant IgG, VH Y27W, T28K, Y32F, A100N; VL unmutated (antibody, V domains shown, IgG format) VH: QVQLVQSGAEVKKPGASVKVSCKASGWKFTGFVMHWVRQAPGQGLEWMGFINPYNDDIQSNERFRGRVTMTRDTSISTAYMELSRLRSDDTAVYYCARGNGYNFDGAYRFFDFWGQGTMVTVSS VL: DIVMTQSPLSLPVTPGEPASISCRSSQRLVHSNGNTYLHWYLQKPGQSPRLLIYRVSNRFPGVPDRFSGSGSGTDFTLKISRVEAEDVGVYYCSQSTHVPYTFGQGTKLEIK",binds,
"hJovi-1 variant IgG, VH Y27N, T28K, Y32F, A100N; VL unmutated (antibody, V domains shown, IgG format) VH: QVQLVQSGAEVKKPGASVKVSCKASGNKFTGFVMHWVRQAPGQGLEWMGFINPYNDDIQSNERFRGRVTMTRDTSISTAYMELSRLRSDDTAVYYCARGNGYNFDGAYRFFDFWGQGTMVTVSS VL: DIVMTQSPLSLPVTPGEPASISCRSSQRLVHSNGNTYLHWYLQKPGQSPRLLIYRVSNRFPGVPDRFSGSGSGTDFTLKISRVEAEDVGVYYCSQSTHVPYTFGQGTKLEIK",binds,
"anti-TRBC2 scFv (T28K, Y32F, A100N, Y102L, N103M in VH; N35R in VL of hJovi-1) (scFv, the format in the assay is unsure) scFv: QVQLVQSGAEVKKPGASVKVSCKASGYKFTGFVMHWVRQAPGQGLEWMGFINPYNDDIQSNERFRGRVTMTRDTSISTAYMELSRLRSDDTAVYYCARGNGLMFDGAYRFFDFWGQGTMVTVSSGGGGSGGGGSGGGGSDIVMTQSPLSLPVTPGEPASISCRSSQRLVHSNGRTYLHWYLQKPGQSPRLLIYRVSNRFPGVPDRFSGSGSGTDFTLKISRVEAEDVGVYYCSQSTHVPYTFGQGTKLEIKR",,binding [6]: binds; binding [7]: no binding (tested: concentration not printed on the sheet)

# Second part, led by results:
binding [4],Binder,other results
binds,"hJovi-1 variant IgG, VH T28K, Y32F, A100N; VL N35K (antibody, V domains shown, IgG format) VH: QVQLVQSGAEVKKPGASVKVSCKASGYKFTGFVMHWVRQAPGQGLEWMGFINPYNDDIQSNERFRGRVTMTRDTSISTAYMELSRLRSDDTAVYYCARGNGYNFDGAYRFFDFWGQGTMVTVSS VL: DIVMTQSPLSLPVTPGEPASISCRSSQRLVHSNGKTYLHWYLQKPGQSPRLLIYRVSNRFPGVPDRFSGSGSGTDFTLKISRVEAEDVGVYYCSQSTHVPYTFGQGTKLEIK",
binds,"hJovi-1 variant IgG, VH V2K, T28K, Y32F, A100N; VL unmutated (antibody, V domains shown, IgG format) VH: QKQLVQSGAEVKKPGASVKVSCKASGYKFTGFVMHWVRQAPGQGLEWMGFINPYNDDIQSNERFRGRVTMTRDTSISTAYMELSRLRSDDTAVYYCARGNGYNFDGAYRFFDFWGQGTMVTVSS VL: DIVMTQSPLSLPVTPGEPASISCRSSQRLVHSNGNTYLHWYLQKPGQSPRLLIYRVSNRFPGVPDRFSGSGSGTDFTLKISRVEAEDVGVYYCSQSTHVPYTFGQGTKLEIK",
binds,"hJovi-1 variant IgG, VH T28K, Y32F, A100N; VL N35R (antibody, V domains shown, IgG format) VH: QVQLVQSGAEVKKPGASVKVSCKASGYKFTGFVMHWVRQAPGQGLEWMGFINPYNDDIQSNERFRGRVTMTRDTSISTAYMELSRLRSDDTAVYYCARGNGYNFDGAYRFFDFWGQGTMVTVSS VL: DIVMTQSPLSLPVTPGEPASISCRSSQRLVHSNGRTYLHWYLQKPGQSPRLLIYRVSNRFPGVPDRFSGSGSGTDFTLKISRVEAEDVGVYYCSQSTHVPYTFGQGTKLEIK",
binds,"hJovi-1 variant IgG, VH T28R, Y32F, A100N; VL unmutated (antibody, V domains shown, IgG format) VH: QVQLVQSGAEVKKPGASVKVSCKASGYRFTGFVMHWVRQAPGQGLEWMGFINPYNDDIQSNERFRGRVTMTRDTSISTAYMELSRLRSDDTAVYYCARGNGYNFDGAYRFFDFWGQGTMVTVSS VL: DIVMTQSPLSLPVTPGEPASISCRSSQRLVHSNGNTYLHWYLQKPGQSPRLLIYRVSNRFPGVPDRFSGSGSGTDFTLKISRVEAEDVGVYYCSQSTHVPYTFGQGTKLEIK",
binds,"hJovi-1 variant IgG, VH Y27F, T28K, Y32F, A100N; VL unmutated (antibody, V domains shown, IgG format) VH: QVQLVQSGAEVKKPGASVKVSCKASGFKFTGFVMHWVRQAPGQGLEWMGFINPYNDDIQSNERFRGRVTMTRDTSISTAYMELSRLRSDDTAVYYCARGNGYNFDGAYRFFDFWGQGTMVTVSS VL: DIVMTQSPLSLPVTPGEPASISCRSSQRLVHSNGNTYLHWYLQKPGQSPRLLIYRVSNRFPGVPDRFSGSGSGTDFTLKISRVEAEDVGVYYCSQSTHVPYTFGQGTKLEIK",
binds,"anti-TRBC2 scFv-COMP (T28K, Y32F, A100N, Y102L, N103M in VH; N35R in VL of hJovi-1) (other, scFv fused to the COMP coiled-coil) QVQLVQSGAEVKKPGASVKVSCKASGYKFTGFVMHWVRQAPGQGLEWMGFINPYNDDIQSNERFRGRVTMTRDTSISTAYMELSRLRSDDTAVYYCARGNGLMFDGAYRFFDFWGQGTMVTVSSGGGGSGGGGSGGGGSDIVMTQSPLSLPVTPGEPASISCRSSQRLVHSNGRTYLHWYLQKPGQSPRLLIYRVSNRFPGVPDRFSGSGSGTDFTLKISRVEAEDVGVYYCSQSTHVPYTFGQGTKLEIKRSGGGGSGGGGSGGGGSAGSDLGPQMLRELQETNAALQDVRELLRQQVREITFLKNTVMECDACGSGKKDPKSGGGGSYPYDVPDYA",binding [5]: binds; binding [3]: binds
